# According to the supplement of paper PMC6411743:
# The chains behind the UniProt entries cited, without tags or fusion partners. Where a name states a change or a piece, a line headed by the entry shows the natural chain unless it says otherwise.
# UniProt P40938, whole entry: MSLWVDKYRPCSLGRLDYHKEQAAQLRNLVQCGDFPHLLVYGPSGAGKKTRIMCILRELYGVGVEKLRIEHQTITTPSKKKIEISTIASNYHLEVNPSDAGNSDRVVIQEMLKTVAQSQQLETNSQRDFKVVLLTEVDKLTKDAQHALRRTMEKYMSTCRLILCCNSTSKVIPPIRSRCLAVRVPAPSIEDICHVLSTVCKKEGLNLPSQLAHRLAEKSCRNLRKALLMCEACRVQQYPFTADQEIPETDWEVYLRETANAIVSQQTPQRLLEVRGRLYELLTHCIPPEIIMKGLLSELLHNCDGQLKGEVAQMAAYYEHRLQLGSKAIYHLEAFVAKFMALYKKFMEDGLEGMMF
# UniProt P38117: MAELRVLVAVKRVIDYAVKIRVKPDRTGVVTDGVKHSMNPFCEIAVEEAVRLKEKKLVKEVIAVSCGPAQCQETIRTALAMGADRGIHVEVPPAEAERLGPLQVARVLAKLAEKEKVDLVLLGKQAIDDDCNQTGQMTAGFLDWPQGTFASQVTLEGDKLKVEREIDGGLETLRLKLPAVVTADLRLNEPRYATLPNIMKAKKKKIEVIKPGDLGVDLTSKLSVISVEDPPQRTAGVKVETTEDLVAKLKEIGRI
# UniProt P27144: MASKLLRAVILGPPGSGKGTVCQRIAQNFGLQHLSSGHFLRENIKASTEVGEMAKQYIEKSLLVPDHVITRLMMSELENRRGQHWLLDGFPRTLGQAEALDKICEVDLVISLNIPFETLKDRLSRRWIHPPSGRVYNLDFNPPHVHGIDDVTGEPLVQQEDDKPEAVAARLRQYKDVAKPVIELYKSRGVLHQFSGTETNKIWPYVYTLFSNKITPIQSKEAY
# UniProt P29083: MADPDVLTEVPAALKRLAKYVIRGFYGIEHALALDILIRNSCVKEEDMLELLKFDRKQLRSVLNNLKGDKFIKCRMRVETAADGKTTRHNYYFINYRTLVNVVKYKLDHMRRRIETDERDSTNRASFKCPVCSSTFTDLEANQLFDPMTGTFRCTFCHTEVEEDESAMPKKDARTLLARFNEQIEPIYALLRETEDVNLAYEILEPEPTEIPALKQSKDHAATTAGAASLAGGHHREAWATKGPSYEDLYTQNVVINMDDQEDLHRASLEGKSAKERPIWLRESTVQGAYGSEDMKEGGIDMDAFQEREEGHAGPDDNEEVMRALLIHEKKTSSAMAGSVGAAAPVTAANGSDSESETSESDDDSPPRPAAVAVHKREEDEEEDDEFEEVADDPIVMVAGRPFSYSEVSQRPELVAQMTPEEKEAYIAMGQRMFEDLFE
# ± gives the standard deviation of the averaged measurements. This is one part of the list.
# Compound: Nc1nc2c(ncn2[C@@H]2O[C@H](COP(=O)(O)OP(=O)(O)OP(=O)(O)O)[C@@H](O)[C@H]2O)c(=O)[nH]1 [guanosine triphosphate]
# Assay: NP40-soluble protein abundance relative to vehicle (solubility fold change) (ratio); higher = more soluble protein in presence of GTP
# Experimental: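 Solubility proteome profiling in Jurkat crude lysate. Lysate was treated with Mg-GTP (0.1-10 mM) for 10 min at room temperature and 3 min at 37 °C, then solubilised with 0.8% NP40 and benzonase, followed by ultracentrifugation. Proteins were quantified by TMT10 LC-MS/MS; the value is the NP40-soluble abundance relative to the NP40-processed vehicle, from 3 independent experiments.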
target,measurement,setting,value
RFC3 (UniProt P40938),NP40-soluble protein abundance,concentration: 0.1mM,1.05 ± 0.035
same,NP40-soluble protein abundance,concentration: 0.5mM,1.13 ± 0.075
same,NP40-soluble protein abundance,concentration: 1mM,1.08 ± 0.075
same,NP40-soluble protein abundance,concentration: 2mM,1.16 ± 0.16
same,NP40-soluble protein abundance,concentration: 4mM,1.23 ± 0.14
same,NP40-soluble protein abundance,concentration: 6mM,1.21 ± 0.16
same,NP40-soluble protein abundance,concentration: 8mM,1.19 ± 0.068
same,NP40-soluble protein abundance,concentration: 10mM,1.2 ± 0.11
ETFB (UniProt P38117),NP40-soluble protein abundance,concentration: 0.1mM,0.972 ± 0.025
same,NP40-soluble protein abundance,concentration: 0.5mM,0.991 ± 0.062
same,NP40-soluble protein abundance,concentration: 1mM,0.885 ± 0.028
same,NP40-soluble protein abundance,concentration: 2mM,0.878 ± 0.085
same,NP40-soluble protein abundance,concentration: 4mM,0.814 ± 0.076
same,NP40-soluble protein abundance,concentration: 6mM,0.879 ± 0.08
same,NP40-soluble protein abundance,concentration: 8mM,0.794 ± 0.045
same,NP40-soluble protein abundance,concentration: 10mM,0.797 ± 0.071
AK4 (UniProt P27144),NP40-soluble protein abundance,concentration: 0.1mM,0.983 ± 0.072
same,NP40-soluble protein abundance,concentration: 0.5mM,0.887 ± 0.088
same,NP40-soluble protein abundance,concentration: 1mM,1.03 ± 0.042
same,NP40-soluble protein abundance,concentration: 2mM,1 ± 0.075
same,NP40-soluble protein abundance,concentration: 4mM,1.03 ± 0.11
same,NP40-soluble protein abundance,concentration: 6mM,0.987 ± 0.11
same,NP40-soluble protein abundance,concentration: 8mM,0.975 ± 0.16
same,NP40-soluble protein abundance,concentration: 10mM,0.983 ± 0.11
GTF2E1 (UniProt P29083),NP40-soluble protein abundance,concentration: 0.1mM,1.08 ± 0.028
same,NP40-soluble protein abundance,concentration: 0.5mM,1.1 ± 0.031
same,NP40-soluble protein abundance,concentration: 1mM,1.01 ± 0.026
same,NP40-soluble protein abundance,concentration: 2mM,1.05 ± 0.084
same,NP40-soluble protein abundance,concentration: 4mM,0.999 ± 0.051
same,NP40-soluble protein abundance,concentration: 6mM,1.01 ± 0.052
same,NP40-soluble protein abundance,concentration: 8mM,0.971 ± 0.046
same,NP40-soluble protein abundance,concentration: 10mM,0.963 ± 0.087
UniProt P49589-3|P49589,NP40-soluble protein abundance,concentration: 0.1mM,0.971 ± 0.031
same,NP40-soluble protein abundance,concentration: 0.5mM,0.976 ± 0.031
same,NP40-soluble protein abundance,concentration: 1mM,0.953 ± 0.027
same,NP40-soluble protein abundance,concentration: 2mM,0.926 ± 0.018
same,NP40-soluble protein abundance,concentration: 4mM,0.928 ± 0.011
same,NP40-soluble protein abundance,concentration: 6mM,0.911 ± 0.015
same,NP40-soluble protein abundance,concentration: 8mM,0.917 ± 0.039
same,NP40-soluble protein abundance,concentration: 10mM,0.9 ± 0.019

# In another format: results already given
target	measurement	setting	value
AK4 (UniProt P27144)	NP40-soluble protein abundance	concentration: 6mM	0.987 ± 0.11
same	NP40-soluble protein abundance	concentration: 8mM	0.975 ± 0.16
same	NP40-soluble protein abundance	concentration: 10mM	0.983 ± 0.11
GTF2E1 (UniProt P29083)	NP40-soluble protein abundance	concentration: 0.1mM	1.08 ± 0.028
same	NP40-soluble protein abundance	concentration: 0.5mM	1.1 ± 0.031
same	NP40-soluble protein abundance	concentration: 1mM	1.01 ± 0.026
same	NP40-soluble protein abundance	concentration: 2mM	1.05 ± 0.084
same	NP40-soluble protein abundance	concentration: 4mM	0.999 ± 0.051
same	NP40-soluble protein abundance	concentration: 6mM	1.01 ± 0.052
same	NP40-soluble protein abundance	concentration: 8mM	0.971 ± 0.046
same	NP40-soluble protein abundance	concentration: 10mM	0.963 ± 0.087
UniProt P49589-3|P49589	NP40-soluble protein abundance	concentration: 0.1mM	0.971 ± 0.031
